# Measurements reported in PubChem BioAssay AID686938 (Drosophila RNAi Screening Center, 2013)
# Test: 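Knock-downs reducing store-operated calcium influx in Drosophila cells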 (primary screen)
# Cells: Drosophila S2R+ cells
# Reagents: long dsRNA against Drosophila genes, about 0.25 µg dsRNA per well, roughly 10,000 cells
# Time to read-out: 5 days of knock-down before the calcium assay
# Treatment: thapsigargin (SERCA pump blocker) to empty calcium stores; entry signal taken 4 min after adding it
# Measurement: 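Per-well fluo-4 fluorescence in two replicates, unnormalised, measured in resting cells and 4 min after store depletion by the SERCA blocker thapsigargin; ratio of the two present in few wells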
# Direction: calcium entry signal: higher = stronger calcium signal after store depletion; entry to resting ratio: higher = more calcium entry relative to resting level; resting calcium signal: higher = higher resting calcium signal
# Hit rule: 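Called when the plate z-score of the entry-to-rest ratio, mean of duplicates, falls below −3; wells with low overall dye signal (Fmax z below −2) or more than five off-targets excluded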
# Calls: active = strongly reduced calcium entry; inactive = no strong reduction
# The deposit covers about 23,000 reagents; below is an unselected part of those that have a named target and a result. Of all reagents, 75 (0.33%) are marked active. 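Raw plate signals without normalisation; calls rest on plate z-scores that were not deposited; ratio present for only 364 wells.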 Unmarked entries are inactive. Reagents against one gene are numbered here. Names joined by + are all predicted targets of the reagent. No sequences are given here. Not given: the dose of the treatment.
target gene,reagent,"calcium entry signal, replicate 1 (fluorescence units)","calcium entry signal, replicate 2 (fluorescence units)",entry to resting ratio,"resting calcium signal, replicate 1 (fluorescence units)","resting calcium signal, replicate 2 (fluorescence units)"
loaf,1,3.93e7,4.65e7,,2.15e7,2.25e7
CG16711,1,3.27e7,4.72e7,,1.60e7,2.07e7
CG18130,1,4.13e7,5.59e7,,2.03e7,2.73e7
CG5235,1,4.53e7,6.84e7,,2.12e7,2.63e7
SLIRP2,1,4.00e7,3.71e7,,2.02e7,1.79e7
jvl,1,5.01e7,5.01e7,,2.55e7,2.36e7
jvl,2,2.95e7,4.22e7,,1.33e7,1.71e7
GlnRS,1,2.47e7,2.84e7,,1.27e7,1.46e7
Or67c,1,3.45e7,3.55e7,,1.71e7,1.53e7
CG15642,1,2.63e7,2.87e7,,1.43e7,1.38e7
CG7420,1,4.89e7,,,2.59e7,
obst-A,1,2.94e7,3.74e7,,1.38e7,1.64e7
CG7458,1,3.24e7,4.30e7,,1.58e7,1.83e7
CG7458,2,2.64e7,3.50e7,,1.25e7,1.61e7
CG33290,1,3.64e7,3.36e7,,1.69e7,1.56e7
mim,1,3.47e7,3.67e7,,1.88e7,1.45e7
mim,2,3.88e7,4.15e7,,2.13e7,1.82e7
CG16995,1,4.41e7,4.86e7,,1.99e7,2.18e7
mag,1,3.55e7,3.92e7,,1.66e7,2.69e7
CG8673,1,2.68e7,4.74e7,,1.37e7,2.07e7
Swip-1,1,5.83e7,,,2.82e7,
Swip-1,2,3.95e7,5.91e7,,2.16e7,2.65e7
CG42322,1,4.43e7,3.13e7,,1.91e7,1.52e7
CG42322,2,4.75e7,4.65e7,,6.97e7,2.13e7
CG42322,3,4.15e7,5.73e7,,6.21e7,2.86e7
pyd3,1,3.07e7,6.66e7,,1.19e7,2.77e7
pyd3,2,3.96e7,2.86e7,,2.37e7,1.52e7
CG32344,1,3.27e7,2.70e7,,1.60e7,1.62e7
l(3)07882,1,3.00e7,2.84e7,,1.54e7,1.65e7
CG17019,1,2.43e7,4.76e7,,2.06e7,2.10e7
CG10298,1,3.31e7,3.35e7,,1.67e7,1.55e7
tup,1,4.16e7,,,2.05e7,

Taken from above:
CG15642, calcium entry signal, replicate 1 (fluorescence units) → 2.63e7
Value for mim #1 in “calcium entry signal, replicate 1 (fluorescence units)”: 3.47e7
Entry for Or67c under “resting calcium signal, replicate 2 (fluorescence units)”: 1.53e7
Entry for CG16711 under “resting calcium signal, replicate 1 (fluorescence units)”: 1.60e7
CG7458 #1, calcium entry signal, replicate 1 (fluorescence units) → 3.24e7

The listing continues:
target gene,reagent,"calcium entry signal, replicate 1 (fluorescence units)","calcium entry signal, replicate 2 (fluorescence units)",entry to resting ratio,"resting calcium signal, replicate 1 (fluorescence units)","resting calcium signal, replicate 2 (fluorescence units)"
CG43316,1,2.78e7,4.06e7,,1.46e7,1.85e7
HERC2,1,5.43e7,5.04e7,,2.44e7,1.99e7
CG15139 (retired record),1,4.68e7,3.54e7,,2.11e7,1.39e7
SelR,1,3.25e7,3.61e7,,1.59e7,1.84e7
CG33333,1,4.22e7,2.31e7,,1.87e7,1.10e7
MBD-R2,1,2.82e7,3.00e7,,1.85e7,1.83e7
Glut3,1,2.65e7,3.98e7,,1.29e7,3.64e7
RpS19b,1,3.50e7,2.68e7,,1.91e7,1.26e7
CG1246,1,3.80e7,3.93e7,,1.93e7,1.73e7
gdl-ORF39 + gdl,1,3.13e7,4.81e7,,1.63e7,1.73e7
CG14191,1,4.49e7,3.76e7,,2.12e7,1.78e7
Egfr,1,3.12e7,6.92e7,,1.40e7,2.75e7
Egfr,2,3.90e7,,,1.99e7,
rux,1,3.28e7,3.30e7,,1.64e7,1.50e7
Sur-8,1,3.42e7,4.84e7,,1.57e7,6.64e7
CG31709,1,3.04e7,4.11e7,,1.48e7,1.70e7
spn-B,1,2.45e7,3.45e7,,1.30e7,5.27e7
shu,1,2.71e7,,,1.29e7,
Sprn,1,2.58e7,3.69e7,,1.41e7,1.60e7
CG32801,1,4.88e7,6.05e7,2.1,2.36e7,2.42e7
GstD11,1,3.42e7,4.13e7,,1.66e7,2.19e7
CG10948,1,2.11e7,3.19e7,,1.07e7,1.37e7
Atg7,1,3.09e7,3.34e7,,1.46e7,1.77e7
Atg7,2,5.44e7,5.94e7,,2.48e7,2.75e7
CHKov2,1,2.94e7,3.10e7,,1.35e7,1.46e7
Ilk,1,6.26e7,2.33e7,,2.58e7,1.20e7
